Reference: PubChem BioAssay AID651768 (National Center for Advancing Translational Sciences (NCATS), 2012)
Screen size: about 360,000 compounds; about 1,700 (0.47%) were called active. The inconclusive results got no clear call from the source; some entries with a clear call stand among them for comparison. The call rests on the fitted dose curve; in most records, active means well fitted inhibition curve with a large enough effect; inconclusive means small, poorly fitted or top-dose-only effect; inactive means no such curve, though single readings can be large or run the other way. Potencies beside an inconclusive call are fits to weak or partial responses and may not hold up.

By UniProt entry, the sequences of proteins in these tests, tags left out.
UniProt Q14191, whole entry, looked up: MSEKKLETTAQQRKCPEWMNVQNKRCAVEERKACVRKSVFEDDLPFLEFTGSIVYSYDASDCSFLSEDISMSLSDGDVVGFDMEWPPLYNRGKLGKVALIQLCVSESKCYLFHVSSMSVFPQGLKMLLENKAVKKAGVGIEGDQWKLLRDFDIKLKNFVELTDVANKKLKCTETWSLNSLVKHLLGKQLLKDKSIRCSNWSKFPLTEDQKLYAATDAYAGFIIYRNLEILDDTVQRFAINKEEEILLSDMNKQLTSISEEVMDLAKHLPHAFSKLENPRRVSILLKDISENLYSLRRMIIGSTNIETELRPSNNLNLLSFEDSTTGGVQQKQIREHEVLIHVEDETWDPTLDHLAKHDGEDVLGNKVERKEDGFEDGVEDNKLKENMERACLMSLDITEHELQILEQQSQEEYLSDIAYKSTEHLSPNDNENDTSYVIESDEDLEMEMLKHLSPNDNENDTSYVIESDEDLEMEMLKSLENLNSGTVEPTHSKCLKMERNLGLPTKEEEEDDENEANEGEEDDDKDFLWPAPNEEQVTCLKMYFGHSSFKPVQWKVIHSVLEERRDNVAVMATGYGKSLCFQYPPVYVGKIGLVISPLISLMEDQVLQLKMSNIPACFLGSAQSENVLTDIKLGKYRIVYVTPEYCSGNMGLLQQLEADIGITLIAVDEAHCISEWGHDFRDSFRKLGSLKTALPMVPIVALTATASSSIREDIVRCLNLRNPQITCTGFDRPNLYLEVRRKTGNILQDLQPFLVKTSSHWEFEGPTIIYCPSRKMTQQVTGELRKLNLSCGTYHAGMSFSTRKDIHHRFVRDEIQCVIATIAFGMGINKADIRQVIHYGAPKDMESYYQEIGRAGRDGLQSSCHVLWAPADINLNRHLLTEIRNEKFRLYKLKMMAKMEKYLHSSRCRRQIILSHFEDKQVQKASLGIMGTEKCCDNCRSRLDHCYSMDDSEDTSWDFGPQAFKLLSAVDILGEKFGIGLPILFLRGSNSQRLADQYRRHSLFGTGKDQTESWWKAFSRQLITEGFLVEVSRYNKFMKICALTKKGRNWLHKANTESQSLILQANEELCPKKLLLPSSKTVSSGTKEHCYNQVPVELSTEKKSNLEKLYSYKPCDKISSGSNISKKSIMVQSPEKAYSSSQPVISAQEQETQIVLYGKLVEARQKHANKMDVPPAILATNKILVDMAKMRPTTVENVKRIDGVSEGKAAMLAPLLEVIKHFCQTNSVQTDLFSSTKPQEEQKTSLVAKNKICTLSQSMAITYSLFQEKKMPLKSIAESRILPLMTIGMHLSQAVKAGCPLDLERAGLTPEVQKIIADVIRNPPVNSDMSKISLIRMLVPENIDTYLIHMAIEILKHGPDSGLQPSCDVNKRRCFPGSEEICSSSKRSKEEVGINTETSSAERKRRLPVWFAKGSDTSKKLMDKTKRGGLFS

Biological target: Bifunctional 3'-5' exonuclease/ATP-dependent helicase WRN (Homo sapiens) (UniProt Q14191)
Assay: qHTS for Inhibitors of WRN Helicase; further: nearly all actives have a fitted effect of over 55% in size
Conditions: WRN helicase unwinding, fluorescent forked duplex, kinetic; activity change, negative = inhibition: at 114 µM (top of the series) unless noted
Method in brief: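 Kinetic red-fluorescence monitoring (525/598 nm) tracks WRN helicase activity after 100 nM fluorophore-quencher forked duplex and 2 mM ATP are added to 20 nM enzyme pretreated 15 min at room temperature with compound.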
On the % scale 0 is the no-effect control and ±100 the full control effect; potency means the concentration at half of the fitted maximal effect.

How did the Potency turn out when `Cc1nn(-c2ccccc2)c(Cl)c1/C=N/Nc1ccc(Cl)c(C(=O)O)c1` was run?
The Potency was inconclusive: 56.2 µM [inhibitor, partial curve].

How did the Potency turn out when `O=C(NCc1ccco1)c1cc(S(=O)(=O)N2CCOCC2)ccc1Br` was run?
The Potency was inconclusive: 89.1 µM [inhibitor, single point].

For `CN(C)S(=O)(=O)c1cccc(NC(=O)Cc2ccsc2)c1`, which Potency is on record?
Its Potency is inconclusive: 100 µM [inhibitor, single point].

`CCc1ccc(OCC(=O)NNC(=O)c2cc3ccccc3o2)cc1` was tested. Which Potency did it give?
The Potency was inconclusive: 28.2 µM [inhibitor, single point].

Which Potency does the source give for `Cc1cccc(/C=C(\C(=O)O)c2ccc(S(=O)(=O)N3CCCC3)s2)c1` here?
Its Potency is inconclusive: 12.6 µM [inhibitor, full curve, poor fit].

Which Potency does the source give for `CCN(CC)CCNC(=O)c1ccc(Cl)c(S(=O)(=O)Nc2ccccc2OC)c1` here?
Its Potency is “inactive”.

`COc1cccc2c1C(=O)c1c(O)c3c(c(O)c1C2=O)CC(O)(C(C)=NNC(=O)c1ccc(Cl)c(Cl)c1)CC3OC1CC(N)C(O)C(C)O1` (stereo not given) was tested. Which Potency did it give?
The Potency was active: 31.6 µM.

Which Potency does the source give for `Cc1ccc(C)c(S(=O)(=O)N2CCCCC2CCNC(=O)C(=O)NCc2ccccc2)c1` (stereo not given) here?
Its Potency is “inactive”.

With `CNC(=S)N/N=C/c1cc(Br)cc(Br)c1O` as the compound, how does the Potency read?
Its Potency is “inactive”.

Which Potency does the source give for `CN1CCN(c2ccc(Nc3ccnc4cc(Cl)ccc34)cc2)CC1` here?
Its Potency is inconclusive: 14.1 µM [inhibitor, partial curve].

How did the Potency turn out when `COc1ccc(CCCc2nnc(SCc3nc4ccccc4c(=O)[nH]3)n2C)cc1` was run?
The Potency was inconclusive: 89.1 µM [inhibitor, single point].

`CCn1c(SC(C)C(=O)O)nc2sc3c(c2c1=O)CCC3` (stereo not given) was tested. Which Potency did it give?
The Potency was active: 56.2 µM.

With `C#CCOCCOCCOCCNc1nc(N2CCN(C(=O)CCCCCCCCCCNC(=O)[C@@H](CCSC)n3cc(CCO)nn3)CC2)nc(N2CCN(C(=O)CCCCCCCCCCNC(=O)[C@H](CCCN=C(N)N)n3cc(C[C@@H](C)CC)nn3)CC2)n1` as the compound, how does the Potency read?
The Potency was active: 50.1 µM.

How did the Potency turn out when `O=C(Oc1cccnc1)c1cc2ccccc2oc1=O` was run?
Its Potency is inconclusive: 56.2 µM [inhibitor, partial curve].

With `CCOC(=O)c1[nH]cnc1C(=O)N1CCN(C(=O)OC(C)(C)C)CC1` as the compound, how does the Potency read?
The Potency was “inactive”.

How did the Potency turn out when `CC(C)Sc1ccccc1C(=O)Nc1ccc2c(c1)n(C)c(=O)n2C` was run?
Its Potency is inconclusive: 10 µM [inhibitor, full curve].

With `O=C(COC(=O)c1cncc(Br)c1)NCc1ccco1` as the compound, how does the Potency read?
The Potency was active: 50.1 µM.

How did the Potency turn out when `Cc1ccc(N=Cc2c(O)c3ccccc3n(C)c2=O)cc1` was run?
Its Potency is inconclusive: 56.2 µM [inhibitor, partial curve].

How did the Potency turn out when `OCCNc1nc(Nc2ccccc2)nc2ccccc12` was run?
Its Potency is “inactive”.

Which Potency does the source give for `COc1ccc(-c2cc(=O)c3c(C)cc(O)cc3o2)cc1` here?
Its Potency is inconclusive: 17.8 µM [inhibitor, full curve].

With `CC(=O)N1CCN(CC(=O)Nc2cc(F)ccc2C)CC1` as the compound, how does the Potency read?
The Potency was inconclusive: 10 µM [inhibitor, full curve, poor fit].

With `C=CCOn1c(-n2nc(C)cc2C)nc2ccccc2c1=O` as the compound, how does the Potency read?
The Potency was inconclusive: 39.8 µM [inhibitor, single point].

With `Cc1ccccc1NS(=O)(=O)c1ccc(OCCNS(C)(=O)=O)cc1` as the compound, how does the Potency read?
The Potency was “inactive”.

For `Cc1ccc(N2CC(C(=O)Nc3c4c(nn3C(C)(C)C)CS(=O)(=O)C4)CC2=O)cc1C` (stereo not given), which Potency is on record?
Its Potency is inconclusive: 89.1 µM [inhibitor, single point].

Which Potency does the source give for `O=C(O)Cn1nc(-c2ccc(F)cc2)oc1=O` here?
The Potency was “inactive”.

Which Potency does the source give for `O=[N+]([O-])c1ccc(SNc2ccccc2)c([N+](=O)[O-])c1` here?
The Potency was inconclusive: 17.8 µM [inhibitor, single point].

`Cc1scc(C(=O)NNC(=S)NC(C)c2ccccc2)c1C` (stereo not given) was tested. Which Potency did it give?
The Potency was “inactive”.

How did the Potency turn out when `Cc1c(NS(=O)(=O)c2cccc(C(=O)NCc3ccco3)c2)c(=O)n(-c2ccccc2)n1C` was run?
Its Potency is inconclusive: 11.2 µM [inhibitor, full curve].

`O=C1C2C3C=CC(CC3)C2C(=O)N1c1cccc(C(F)(F)F)c1` (stereo not given) was tested. Which Potency did it give?
The Potency was inconclusive: 8.91 µM [inhibitor, full curve, poor fit].

With `COc1ccccc1N1CCN(S(=O)(=O)c2ccc(-n3cnnn3)c(C)c2)CC1` as the compound, how does the Potency read?
Its Potency is “inactive”.

`CCn1c(SCC(=O)c2c(N)n(C3CC3)c(=O)[nH]c2=O)nc2cc(S(N)(=O)=O)ccc21` was tested. Which Potency did it give?
The Potency was “inactive”.

With `Clc1nssc1=Nc1ccccc1` as the compound, how does the Potency read?
Its Potency is inconclusive: 39.8 µM [inhibitor, full curve, poor fit].

Which Potency does the source give for `CC1(C(=O)NNC(=O)c2ccc(=O)oc2)CC1Br` (stereo not given) here?
Its Potency is inconclusive: 56.2 µM [inhibitor, partial curve].

How did the Potency turn out when `Cc1ccc(S(=O)(=O)N/N=C\c2ccc3c(c2)OCO3)c(C)c1` was run?
The Potency was “inactive”.

For `COc1ccc(/C=C2/SC(=S)N(NS(=O)(=O)c3ccc(C)cc3)C2=O)cc1`, which activity change, negative = inhibition is on record?
The activity change, negative = inhibition was inactive: -12.6% [at 11.6 µM].

`COc1ccc(-c2nc(CN3CCCC(C(=O)NC4CCCC4)C3)c(C)o2)cc1` (stereo not given) was tested. Which Potency did it give?
The Potency was “inactive”.

With `CCCc1cc(=O)[nH]c(SCC(=O)c2c[nH]c3ccccc23)n1` as the compound, how does the Potency read?
Its Potency is “inactive”.

For `COc1ccc(N2C(=O)[C@H]3[C@@H](C2=O)C2c4ccccc4C=NN2[C@H]3C(=O)C(C)(C)C)cc1` (stereo not given in full), which Potency is on record?
The Potency was “inactive”.

Which Potency does the source give for `Cc1nc(S/C(=C/c2ccc(OCc3ccc(C(=O)O)cc3)cc2)C(=O)O)n[nH]1` here?
Its Potency is inconclusive: 31.6 µM [inhibitor, partial curve].

`COc1ccc(/C=C\C(=O)c2c(O)ccc3c(C)cc(=O)oc23)cc1` was tested. Which Potency did it give?
Its Potency is “inactive”.

With `COc1ccc(N2CC(C(=O)Nc3nnc(SCc4cccnc4)s3)CC2=O)cc1` (stereo not given) as the compound, how does the Potency read?
Its Potency is inconclusive: 56.2 µM [inhibitor, partial curve].

`COc1ccc(-c2cnc3c(NC=O)cc(-c4cc(OC)c(OC)c(OC)c4)cn23)cc1OC` was tested. Which Potency did it give?
Its Potency is inconclusive: 39.8 µM [inhibitor, single point].

For `Clc1ccc(SCCCCN2CCOCC2)cc1`, which Potency is on record?
The Potency was inconclusive: 39.8 µM [inhibitor, single point].

For `O=c1nc(/C=C/c2ccc(O)c(O)c2)oc2ccccc12`, which Potency is on record?
Its Potency is inconclusive: 35.5 µM [inhibitor, partial curve].

How did the Potency turn out when `COc1ccc(NS(=O)(=O)c2cccc(C(=O)NN=Cc3ccc(O)c(OC)c3)c2)cc1` was run?
Its Potency is inconclusive: 20 µM [inhibitor, full curve].
